Results deposited as PubChem BioAssay AID493246 (Drosophila RNAi Screening Center, 2011)

Aim: 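Genes fly cells need to grow and stay alive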 (primary screen)
System: Drosophila Kc and S2R+ cells
Knock-down reagent: long dsRNA against Drosophila genes
Measured: 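Raw, unnormalised count of remaining cells in each well; per-plate z-scores of cell number underlie the calls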
Scale: Kc cell number and S2R+ cell number: higher = more cells remaining
Active means: 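Counted as a hit if cell number falls by a z-score of at least 3 within its plate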
In all, the deposit lists about 21,000 reagents; this is a random part of those with a known target gene and a result. In the full data, 429 (2%) are marked active. 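Values are raw and not normalised between plates; calls rest on per-plate z-scores that were not deposited.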 Reagents against one gene are numbered here. A plus sign joins genes that one reagent is predicted to hit. Not given: the amount of reagent, the time to read-out.

CG9948 → Kc cell number, rep 1: 1.47e6; Kc cell number, rep 2: 1.45e6; S2R+ cell number, rep 1: 1.16e6; S2R+ cell number, rep 2: 1.17e6; Call: inactive
Nak → Kc cell number, rep 1: 1.31e6; Kc cell number, rep 2: 1.34e6; S2R+ cell number, rep 1: 1.31e6; S2R+ cell number, rep 2: 1.24e6; Call: inactive
CG7763 → Kc cell number, rep 1: 1.57e6; Kc cell number, rep 2: 1.61e6; S2R+ cell number, rep 1: 1.43e6; S2R+ cell number, rep 2: 1.51e6; Call: inactive
didum → Kc cell number, rep 1: 1.64e6; Kc cell number, rep 2: 1.63e6; S2R+ cell number, rep 1: 1.35e6; S2R+ cell number, rep 2: 1.44e6; Call: inactive
psidin → Kc cell number, rep 1: 1.41e6; Kc cell number, rep 2: 1.34e6; S2R+ cell number, rep 1: 1.09e6; S2R+ cell number, rep 2: 1.19e6; Call: inactive
lost #1 → Kc cell number, rep 1: 1.41e6; Kc cell number, rep 2: 1.47e6; S2R+ cell number, rep 1: 1.12e6; S2R+ cell number, rep 2: 1.31e6; Call: inactive
lost #2 → Kc cell number, rep 1: 1.30e6; Kc cell number, rep 2: 1.34e6; S2R+ cell number, rep 1: 1.09e6; S2R+ cell number, rep 2: 1.13e6; Call: inactive
mRpL1 → Kc cell number, rep 1: 1.68e6; Kc cell number, rep 2: 1.84e6; S2R+ cell number, rep 1: 1.10e6; S2R+ cell number, rep 2: 1.28e6; Call: inactive
bru1 #1 → Kc cell number, rep 1: 8.70e5; Kc cell number, rep 2: 8.85e5; S2R+ cell number, rep 1: 5.16e5; S2R+ cell number, rep 2: 6.14e5; Call: active
bru1 #2 → Kc cell number, rep 1: 1.66e6; Kc cell number, rep 2: 1.68e6; S2R+ cell number, rep 1: 8.82e5; S2R+ cell number, rep 2: 1.02e6; Call: inactive
bru1 #3 → Kc cell number, rep 1: 1.45e6; Kc cell number, rep 2: 1.53e6; S2R+ cell number, rep 1: 1.03e6; S2R+ cell number, rep 2: 1.19e6; Call: inactive
bru1 #4 → Kc cell number, rep 1: 1.54e6; Kc cell number, rep 2: 1.58e6; S2R+ cell number, rep 1: 1.08e6; S2R+ cell number, rep 2: 1.20e6; Call: inactive
bru1 #5 → Kc cell number, rep 1: 1.21e6; Kc cell number, rep 2: 1.29e6; S2R+ cell number, rep 1: 9.95e5; S2R+ cell number, rep 2: 1.12e6; Call: inactive
Ccp84Ad → Kc cell number, rep 1: 1.40e6; Kc cell number, rep 2: 1.31e6; S2R+ cell number, rep 1: 9.43e5; S2R+ cell number, rep 2: 1.11e6; Call: inactive

Only “S2R+ cell number, rep 2” (3 entries from above):
mRpL1 = 1.28e6
bru1 #1 = 6.14e5
bru1 #2 = 1.02e6

The results go on:
gek → Kc cell number, rep 1: 1.35e6; Kc cell number, rep 2: 1.46e6; S2R+ cell number, rep 1: 1.21e6; S2R+ cell number, rep 2: 1.26e6; Call: inactive
CG4456 + Hsp22 #1 → Kc cell number, rep 1: 1.44e6; Kc cell number, rep 2: 1.48e6; S2R+ cell number, rep 1: 1.20e6; S2R+ cell number, rep 2: 1.30e6; Call: inactive
CG4456 + Hsp22 #2 → Kc cell number, rep 1: 1.53e6; Kc cell number, rep 2: 1.45e6; S2R+ cell number, rep 1: 1.23e6; S2R+ cell number, rep 2: 1.21e6; Call: inactive
MFS12 → Kc cell number, rep 1: 1.35e6; Kc cell number, rep 2: 1.38e6; S2R+ cell number, rep 1: 1.10e6; S2R+ cell number, rep 2: 1.03e6; Call: inactive
CG9304 → Kc cell number, rep 1: 1.38e6; Kc cell number, rep 2: 1.50e6; S2R+ cell number, rep 1: 1.27e6; S2R+ cell number, rep 2: 4.43e5; Call: inactive
CG2120 → Kc cell number, rep 1: 1.46e6; Kc cell number, rep 2: 1.45e6; S2R+ cell number, rep 1: 9.85e5; S2R+ cell number, rep 2: 1.09e6; Call: inactive
CG9175 → Kc cell number, rep 1: 1.52e6; Kc cell number, rep 2: 1.62e6; S2R+ cell number, rep 1: 6.34e5; S2R+ cell number, rep 2: 6.80e5; Call: inactive
